The list shows a part of the results.
Compound: Cc1cc(ccc1-c1ccccc1)C(=O)N1CCCN(CC1)C(=O)CCl [compound 10]
Experiment: probe-labelled cysteine peptide fold change vs DMSO (competition) (log2 fold change); higher = less target engagement (more negative = stronger competition)
Conditions: THP-1, incubation time: 4 h
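Note: competitive profiling in live THP-1 cells: cysteine peptides tagged with an iodoacetamide desthiobiotin (IA-DTB) probe, intensity after compound treatment relative to DMSO-treated cells.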

Target	probe-labelled cysteine peptide fold change (10 µM)	probe-labelled cysteine peptide fold change (50 µM)
RCC1_P18754_308_SWVGFSGGQHHTVCMDSEGK (UniProt P18754)	0.0815	-0.0668
RBM19_Q9Y4C8_31_QLFAAFGTLTDCSLK (UniProt Q9Y4C8)	0.301	0.448
RANBP2_P49792_707_KAEDIENDALSPEEQEECK (UniProt P49792)	0.21	0.109
RBPJ_Q06330_180_NADLCIASGTK (UniProt Q06330)	-0.0723	-0.0419
RASSF2_P50749_12_MDYSHQTSLVPCGQDK (UniProt P50749)	-0.0227	-0.106
RBBP6_Q7Z6E9_283_DIMTDAVVIPCCGNSYCDECIR (UniProt Q7Z6E9)	0.318	0.243
RDH13_Q8NBN7_75_CEAAAK (UniProt Q8NBN7)	-0.384	-0.169
RBBP6_Q7Z6E9_280+283_DIMTDAVVIPCCGNSYCDECIR (UniProt Q7Z6E9)	-0.169	-0.403
RBM22_Q9NW64_269_QQCAFIQFATR (UniProt Q9NW64)	0.195	0.342
RASA1_P20936_616_HFTNPYCNIYLNSVQVAK (UniProt P20936)	0.015	0.021
RASAL3_Q86YV0_546_CPASELPEHQAR (UniProt Q86YV0)	-0.235	-0.35
RASGRP4_Q8TDF6_502_LSGNFPFACHGLHPPPR (UniProt Q8TDF6)	-0.315	-0.369
RCC1L_Q96I51_401_CGLSHFAALTNK (UniProt Q96I51)	-0.101	-0.182
RDH11_Q8TC12_33_MLSSGVCTSTVQLPGK (UniProt Q8TC12)	-0.185	0.174
RCHY1_Q96PM5_183+186_CPLCMHSALDMTR (UniProt Q96PM5)	0.03	-0.16
RANBP9_Q96S59_707_QPPLALAMGQATQCLGLMAR (UniProt Q96S59)	0.193	0.216
RBBP9_O75884_163_FTDCGHFQNTEFHELITVVK (UniProt O75884)	-0.11	-0.0199
RASAL2_Q9UJF2_333_NKEELACALVHILQSTGR (UniProt Q9UJF2)	0.106	-0.178
RARS_P54136_293_AYQCVVLLQGK (UniProt P54136)	0.0372	0.14
RASGRP2_Q7LDG7_11_GCTVEELLR (UniProt Q7LDG7)	0.159	-0.0624
RCC2_Q9P258_305_IEYDCELVPR (UniProt Q9P258)	0.0188	0.116

Target	probe-labelled cysteine peptide fold change (10 µM)	probe-labelled cysteine peptide fold change (50 µM)
RCC2_Q9P258_337_DVACGANHTLVLDSQKR (UniProt Q9P258)	-0.133	-0.211
RBBP5_Q15291_100_LVSASTDNIVSQWDVLSGDCDQR (UniProt Q15291)	0.121	0.0651
RBX1_P62877_94_QVCPLDNREWEFQK (UniProt P62877)	-0.296	-0.446
RBPJ_Q06330_72_FFCPPPCVYLMGSGWK (UniProt Q06330)	-0.103	0.182
RASGRP4_Q8TDF6_14_SHQECTGK (UniProt Q8TDF6)	-0.159	-0.508
RANBP2_P49792_1612_EGQWDCSVCLVR (UniProt P49792)	0.0273	-0.317
RANBP10_Q6VN20_243_VQGTVHCFPISAR (UniProt Q6VN20)	-0.138	-0.226
RECQL4_O94761_1088_TFQAFHSVAFPSCGPCLEQQDEER (UniProt O94761)	-0.0505	-0.422
RBM15_Q96T37_926_ENTGVLHAFPPCEFSQQFLDSPAK (UniProt Q96T37)	0.0231	-0.0391
RBBP6_Q7Z6E9_161_KPLGPPPPSYTCFR (UniProt Q7Z6E9)	0.189	0.216
RASSF4_Q9H2L5_33_TYNCYHEGK (UniProt Q9H2L5)	0.0346	-0.039
RCC1L_Q96I51_237_MQDFDGQVVQVACGQDHSLFLTDK (UniProt Q96I51)	0.0323	0.0663
RAP1GDS1_P52306_117_ALGNICYDSHEGR (UniProt P52306)	-0.095	-0.405
RBFA_Q8N0V3_338_TEDGHSCGASR (UniProt Q8N0V3)	-0.17	-0.0284
RCC2_Q9P258_158_TVVSGSCAAHSLLITTEGK (UniProt Q9P258)	0.0546	0.205
RCCD1_A6NED2_139_LPLLPCAR (UniProt A6NED2)	-1.01	-1.9
RASAL2_Q9UJF2_333_EELACALVHILQSTGR (UniProt Q9UJF2)	0.198	0.357
RBKS_Q9H477_151_VMVCQLEITPATSLEALTMAR (UniProt Q9H477)	0.198	-0.0743
RANBP2_P49792_1485_EGQWDCSACLVQNEGSSTK (UniProt P49792)	0.0715	0.0194
RBM6_P78332_957+960_LACLLCR (UniProt P78332)	0.0979	-0.287
RDH13_Q8NBN7_30_DYVTGGACPSK (UniProt Q8NBN7)	-0.162	-0.083

Target	probe-labelled cysteine peptide fold change (10 µM)	probe-labelled cysteine peptide fold change (50 µM)
RASGRP2_Q7LDG7_548_DRLSVECR (UniProt Q7LDG7)	-0.145	-0.413
RBM42_Q9BTD8_385_IFCGDLGNEVNDDILAR (UniProt Q9BTD8)	0.118	0.308
RBM28_Q9NW13_392_CLLAASPENEAGGLK (UniProt Q9NW13)	0.0774	0.197
RARS_P54136_115_FGDYQCNSAMGISQMLK (UniProt P54136)	-0.0887	-0.216
RBM25_P49756_83_AKENDENCGPTTTVFVGNISEK (UniProt P49756)	-0.0629	-0.55
RARS2_Q5T160_372_CQHVPFGVVQGMK (UniProt Q5T160)	-0.106	-0.169
RBM23_Q86U06_316_GYGFITFSDSECAR (UniProt Q86U06)	0.166	0.518
RBM26_Q5T8P6_53_ALCIDQLDVFLQK (UniProt Q5T8P6)	0.15	0.248
RANBP2_P49792_1749_CIACQCPSK (UniProt P49792)	0.0505	0.0953
RASGRP2_Q7LDG7_512_MGFVHNFQESNSLRPVACR (UniProt Q7LDG7)	-0.0754	-0.351
RAI1_Q7Z5J4_1516_MEELGLASQPPEGRPCQPQTR (UniProt Q7Z5J4)	-0.171	-0.319
RCC2_Q9P258_280_GNLYSFGCPEYGQLGHNSDGK (UniProt Q9P258)	0.188	-0.13
RAI1_Q7Z5J4_899_APLICTK (UniProt Q7Z5J4)	-0.3	-0.16
RANBP2_P49792_581_HGLQPALLVHWAECLQK (UniProt P49792)	0.132	0.224
RBM4B_Q9BQ04_89_LHVGNISPTCTNQELR (UniProt Q9BQ04)	0.0928	0.191
RBKS_Q9H477_59_GANQCVQAAR (UniProt Q9H477)	-0.07	-0.0949
RANBP2_P49792_1424_KEGHWDCSICLVR (UniProt P49792)	-0.00245	-0.496
RALGAPA2_Q2PPJ7_418_GYVNFVNEVFHQAFLLPSCEIAVTR (UniProt Q2PPJ7)	-0.0914	-0.0596
RBM22_Q9NW64_27_QNWEDADFPILCQTCLGENPYIR (UniProt Q9NW64)	0.169	-0.23
RANBP2_P49792_1196_TGEEDEEEFFCNR (UniProt P49792)	0.192	-0.193
RCHY1_Q96PM5_43_LCHDNNEDHQLDR (UniProt Q96PM5)	0.344	2.12

Target	probe-labelled cysteine peptide fold change (10 µM)	probe-labelled cysteine peptide fold change (50 µM)
RBBP7_Q16576_277_PSHLVDAHTAEVNCLSFNPYSEFILATGSADK (UniProt Q16576)	0.0787	0.371
RECQL4_O94761_389_KKGECFGGGGATVTTK (UniProt O94761)	0.105	0.274
RBM28_Q9NW13_490_LCLHNLPK (UniProt Q9NW13)	0.0958	-0.0599
RBMXL1_Q96E39_338_SDLYSSCDR (UniProt Q96E39)	0.12	-0.287
RAVER1_Q8IY67_224_CLCVDRLPPGFNDVDALCR (UniProt Q8IY67)	-0.000295	-0.217
RBBP6_Q7Z6E9_27_LNYDTVTFDGLHISLCDLK (UniProt Q7Z6E9)	0.127	0.255
RARS_P54136_34_NCGCLGASPNLEQLQEENLK (UniProt P54136)	-0.247	-1.27
RBM12B_Q8IXT5_204_FASCVDASGGLK (UniProt Q8IXT5)	0.0426	-0.362
RBM23_Q86U06_215_GIAYVEFCEIQSVPLAIGLTGQR (UniProt Q86U06)	-0.337	0.115
RANBP2_P49792_1549_EGQWDCSSCLVR (UniProt P49792)	0.0665	-0.279
RBM5_P52756_649_MACLLCR (UniProt P52756)	-0.0352	0.105
RBBP7_Q16576_166_HPAKPDPSGECNPDLR (UniProt Q16576)	-0.21	0.0678
RBM27_Q9P2N5_279_CRDYDER (UniProt Q9P2N5)	0.245	-0.0033
RARS2_Q5T160_74_CDTVVSEISTGQR (UniProt Q5T160)	0.34	0.331
RB1CC1_Q8TDY2_603_VPLLCDFEPLHQHVLALHNLVK (UniProt Q8TDY2)	-0.156	-1.09
RBCK1_Q9BYM8_323_NSQEAEVSCPFIDNTYSCSGK (UniProt Q9BYM8)	-0.0376	-0.39
RANBP6_O60518_792_SIEVMGDGCLNDEHLEELGGILK (UniProt O60518)	-0.0727	0.0635
RCC1L_Q96I51_114_ISSAACGYGFTLLSSK (UniProt Q96I51)	-0.129	-0.0746
RCC1_P18754_81_KKPALVSIPEDVVQAEAGGMHTVCLSK (UniProt P18754)	0.222	0.00225
RAPGEF1_Q13905_817_CATSSQPLAAR (UniProt Q13905)	-0.1	-0.391
RCC1L_Q96I51_401_CGLSHFAALTNKGELFVWGK (UniProt Q96I51)	-0.192	-0.717
